From the supplement of paper PMC12067093, “Discovery and optimisation of a covalent ligand for TRIM25 and its application to targeted protein ubiquitination” (Chemical Science, 2025)
The list shows a part of the results.

Protein sequences, listed by entry. Tags and fused reporters are not part of them. Lines headed by an entry give the natural chain unless they say otherwise; changes in a name come on top.
UniProt Q14137: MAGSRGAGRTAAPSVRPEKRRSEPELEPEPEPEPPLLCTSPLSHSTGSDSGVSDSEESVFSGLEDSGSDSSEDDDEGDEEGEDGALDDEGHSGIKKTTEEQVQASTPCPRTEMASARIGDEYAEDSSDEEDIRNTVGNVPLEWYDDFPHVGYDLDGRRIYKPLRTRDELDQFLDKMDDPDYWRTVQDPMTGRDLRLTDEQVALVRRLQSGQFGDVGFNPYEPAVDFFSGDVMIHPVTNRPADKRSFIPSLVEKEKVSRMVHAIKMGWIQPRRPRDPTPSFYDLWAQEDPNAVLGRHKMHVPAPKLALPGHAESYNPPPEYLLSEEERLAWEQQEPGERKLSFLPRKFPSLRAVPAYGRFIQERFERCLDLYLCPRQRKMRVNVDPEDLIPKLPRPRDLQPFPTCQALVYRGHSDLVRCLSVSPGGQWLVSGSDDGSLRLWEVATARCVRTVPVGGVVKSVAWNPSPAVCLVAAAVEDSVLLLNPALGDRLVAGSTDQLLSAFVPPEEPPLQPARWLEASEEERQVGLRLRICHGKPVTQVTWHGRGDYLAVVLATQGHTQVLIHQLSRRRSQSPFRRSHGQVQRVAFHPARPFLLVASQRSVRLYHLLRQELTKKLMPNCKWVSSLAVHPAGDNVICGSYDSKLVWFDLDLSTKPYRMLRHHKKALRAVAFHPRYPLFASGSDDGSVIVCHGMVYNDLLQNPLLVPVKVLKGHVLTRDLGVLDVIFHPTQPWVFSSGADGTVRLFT
UniProt Q8NFC6: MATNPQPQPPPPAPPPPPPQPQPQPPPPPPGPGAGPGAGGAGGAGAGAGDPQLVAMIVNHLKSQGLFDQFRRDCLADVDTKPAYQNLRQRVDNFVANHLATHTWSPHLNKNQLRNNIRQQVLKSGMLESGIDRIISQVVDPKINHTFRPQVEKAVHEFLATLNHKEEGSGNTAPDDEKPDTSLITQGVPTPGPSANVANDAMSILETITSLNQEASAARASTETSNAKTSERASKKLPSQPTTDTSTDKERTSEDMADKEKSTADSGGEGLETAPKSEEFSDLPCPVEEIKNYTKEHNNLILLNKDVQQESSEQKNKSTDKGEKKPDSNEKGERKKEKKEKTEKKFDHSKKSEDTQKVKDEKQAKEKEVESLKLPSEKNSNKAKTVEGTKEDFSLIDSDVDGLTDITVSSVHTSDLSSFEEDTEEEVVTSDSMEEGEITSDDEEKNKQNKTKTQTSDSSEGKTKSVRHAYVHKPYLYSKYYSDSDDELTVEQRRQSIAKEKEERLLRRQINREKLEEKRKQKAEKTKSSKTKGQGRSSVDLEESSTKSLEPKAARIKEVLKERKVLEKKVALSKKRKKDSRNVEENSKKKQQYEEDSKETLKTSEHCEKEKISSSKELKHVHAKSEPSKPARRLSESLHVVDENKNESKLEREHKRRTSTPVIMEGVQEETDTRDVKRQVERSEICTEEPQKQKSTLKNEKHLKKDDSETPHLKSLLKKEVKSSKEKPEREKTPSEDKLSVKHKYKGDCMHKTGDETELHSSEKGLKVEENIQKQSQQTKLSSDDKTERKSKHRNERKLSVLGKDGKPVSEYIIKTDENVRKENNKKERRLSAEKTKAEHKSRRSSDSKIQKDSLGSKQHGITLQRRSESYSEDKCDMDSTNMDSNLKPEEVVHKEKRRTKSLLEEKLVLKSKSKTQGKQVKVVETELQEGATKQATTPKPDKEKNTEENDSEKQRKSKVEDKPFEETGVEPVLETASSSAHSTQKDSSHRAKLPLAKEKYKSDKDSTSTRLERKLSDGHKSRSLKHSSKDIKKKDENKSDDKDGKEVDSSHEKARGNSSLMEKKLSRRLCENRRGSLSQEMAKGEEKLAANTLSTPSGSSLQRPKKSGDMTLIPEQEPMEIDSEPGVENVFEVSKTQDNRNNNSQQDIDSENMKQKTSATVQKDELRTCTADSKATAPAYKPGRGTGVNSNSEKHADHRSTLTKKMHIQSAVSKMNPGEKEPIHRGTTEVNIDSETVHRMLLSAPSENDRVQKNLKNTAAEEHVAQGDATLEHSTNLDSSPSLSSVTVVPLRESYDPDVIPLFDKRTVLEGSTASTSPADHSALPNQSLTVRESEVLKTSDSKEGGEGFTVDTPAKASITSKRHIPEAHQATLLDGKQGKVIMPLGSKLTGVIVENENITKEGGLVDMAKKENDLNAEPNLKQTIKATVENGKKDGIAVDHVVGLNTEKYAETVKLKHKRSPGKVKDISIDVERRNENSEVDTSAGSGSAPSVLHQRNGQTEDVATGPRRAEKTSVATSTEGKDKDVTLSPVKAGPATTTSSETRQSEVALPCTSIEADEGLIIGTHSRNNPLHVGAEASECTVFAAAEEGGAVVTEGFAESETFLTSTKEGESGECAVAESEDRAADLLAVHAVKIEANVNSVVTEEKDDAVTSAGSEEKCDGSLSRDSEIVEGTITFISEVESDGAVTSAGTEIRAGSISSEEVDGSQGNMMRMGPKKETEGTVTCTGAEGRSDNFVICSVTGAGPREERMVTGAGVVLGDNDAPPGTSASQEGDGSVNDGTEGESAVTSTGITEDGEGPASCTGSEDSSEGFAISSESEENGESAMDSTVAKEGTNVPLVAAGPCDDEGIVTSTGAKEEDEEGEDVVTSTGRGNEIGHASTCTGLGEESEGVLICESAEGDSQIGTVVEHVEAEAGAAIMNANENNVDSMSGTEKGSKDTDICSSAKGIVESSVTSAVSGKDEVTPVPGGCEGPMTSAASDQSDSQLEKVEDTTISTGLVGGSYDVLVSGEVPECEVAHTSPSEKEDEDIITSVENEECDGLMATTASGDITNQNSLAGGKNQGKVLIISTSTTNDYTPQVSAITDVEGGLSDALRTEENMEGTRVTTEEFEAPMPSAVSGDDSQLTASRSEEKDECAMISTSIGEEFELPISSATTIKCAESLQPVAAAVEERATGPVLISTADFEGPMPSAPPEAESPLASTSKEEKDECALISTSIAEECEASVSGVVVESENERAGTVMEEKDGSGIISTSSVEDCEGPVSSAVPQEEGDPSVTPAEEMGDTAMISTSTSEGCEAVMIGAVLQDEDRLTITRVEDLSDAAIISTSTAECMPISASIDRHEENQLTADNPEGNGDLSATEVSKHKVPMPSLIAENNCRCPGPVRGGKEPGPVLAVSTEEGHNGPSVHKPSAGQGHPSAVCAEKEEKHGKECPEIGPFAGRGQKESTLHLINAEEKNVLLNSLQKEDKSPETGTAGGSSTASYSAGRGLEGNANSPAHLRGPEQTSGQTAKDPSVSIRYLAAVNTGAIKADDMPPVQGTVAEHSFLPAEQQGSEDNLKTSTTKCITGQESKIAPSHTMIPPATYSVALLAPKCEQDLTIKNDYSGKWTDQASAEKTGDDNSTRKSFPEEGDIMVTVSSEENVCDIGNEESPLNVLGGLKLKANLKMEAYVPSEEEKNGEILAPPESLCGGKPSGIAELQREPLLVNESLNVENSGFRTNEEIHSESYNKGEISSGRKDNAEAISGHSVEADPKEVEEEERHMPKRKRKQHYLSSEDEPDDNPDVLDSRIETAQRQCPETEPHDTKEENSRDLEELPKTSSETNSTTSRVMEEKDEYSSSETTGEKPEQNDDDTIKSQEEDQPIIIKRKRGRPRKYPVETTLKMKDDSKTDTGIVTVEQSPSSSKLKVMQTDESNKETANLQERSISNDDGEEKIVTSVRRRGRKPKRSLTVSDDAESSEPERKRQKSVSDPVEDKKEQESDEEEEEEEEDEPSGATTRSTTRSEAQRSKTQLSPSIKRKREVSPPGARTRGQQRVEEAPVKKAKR
UniProt P30530, whole entry, looked up: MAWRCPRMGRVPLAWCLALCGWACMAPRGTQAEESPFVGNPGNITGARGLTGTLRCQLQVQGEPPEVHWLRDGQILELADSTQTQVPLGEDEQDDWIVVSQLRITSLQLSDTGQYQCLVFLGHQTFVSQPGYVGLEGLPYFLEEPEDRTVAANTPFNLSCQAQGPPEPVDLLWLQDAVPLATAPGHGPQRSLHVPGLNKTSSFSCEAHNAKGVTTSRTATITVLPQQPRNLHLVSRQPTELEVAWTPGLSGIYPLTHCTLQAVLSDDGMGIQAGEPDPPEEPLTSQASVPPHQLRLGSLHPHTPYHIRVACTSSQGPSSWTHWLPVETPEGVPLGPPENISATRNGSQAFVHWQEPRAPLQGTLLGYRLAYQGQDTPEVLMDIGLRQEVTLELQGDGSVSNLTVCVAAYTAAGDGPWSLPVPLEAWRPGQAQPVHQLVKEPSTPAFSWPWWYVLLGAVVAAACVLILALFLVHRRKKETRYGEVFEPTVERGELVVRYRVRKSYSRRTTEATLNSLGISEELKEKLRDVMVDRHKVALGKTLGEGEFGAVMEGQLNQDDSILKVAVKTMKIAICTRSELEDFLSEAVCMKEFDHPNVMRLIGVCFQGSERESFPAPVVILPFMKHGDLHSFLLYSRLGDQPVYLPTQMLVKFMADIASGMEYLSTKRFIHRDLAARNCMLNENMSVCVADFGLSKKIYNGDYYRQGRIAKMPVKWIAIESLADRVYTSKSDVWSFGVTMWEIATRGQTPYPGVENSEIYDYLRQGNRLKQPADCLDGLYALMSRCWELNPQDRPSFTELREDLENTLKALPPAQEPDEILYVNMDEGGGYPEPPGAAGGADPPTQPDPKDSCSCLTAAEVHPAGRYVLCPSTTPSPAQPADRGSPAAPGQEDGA
UniProt P61769, whole entry, looked up: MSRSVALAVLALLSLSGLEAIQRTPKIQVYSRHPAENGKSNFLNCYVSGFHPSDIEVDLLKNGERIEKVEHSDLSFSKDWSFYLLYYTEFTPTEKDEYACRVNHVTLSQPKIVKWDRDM
UniProt P54687: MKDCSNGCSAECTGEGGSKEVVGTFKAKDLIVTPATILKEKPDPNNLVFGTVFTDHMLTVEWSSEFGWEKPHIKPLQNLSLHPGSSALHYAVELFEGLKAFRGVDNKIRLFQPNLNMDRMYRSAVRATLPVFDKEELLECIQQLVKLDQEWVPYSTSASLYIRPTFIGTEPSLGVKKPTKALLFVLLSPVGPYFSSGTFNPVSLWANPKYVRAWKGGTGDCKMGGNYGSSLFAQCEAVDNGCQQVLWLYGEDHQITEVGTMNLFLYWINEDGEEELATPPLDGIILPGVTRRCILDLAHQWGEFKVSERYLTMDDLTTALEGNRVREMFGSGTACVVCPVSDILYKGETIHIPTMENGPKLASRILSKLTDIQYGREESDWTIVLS
UniProt P11274: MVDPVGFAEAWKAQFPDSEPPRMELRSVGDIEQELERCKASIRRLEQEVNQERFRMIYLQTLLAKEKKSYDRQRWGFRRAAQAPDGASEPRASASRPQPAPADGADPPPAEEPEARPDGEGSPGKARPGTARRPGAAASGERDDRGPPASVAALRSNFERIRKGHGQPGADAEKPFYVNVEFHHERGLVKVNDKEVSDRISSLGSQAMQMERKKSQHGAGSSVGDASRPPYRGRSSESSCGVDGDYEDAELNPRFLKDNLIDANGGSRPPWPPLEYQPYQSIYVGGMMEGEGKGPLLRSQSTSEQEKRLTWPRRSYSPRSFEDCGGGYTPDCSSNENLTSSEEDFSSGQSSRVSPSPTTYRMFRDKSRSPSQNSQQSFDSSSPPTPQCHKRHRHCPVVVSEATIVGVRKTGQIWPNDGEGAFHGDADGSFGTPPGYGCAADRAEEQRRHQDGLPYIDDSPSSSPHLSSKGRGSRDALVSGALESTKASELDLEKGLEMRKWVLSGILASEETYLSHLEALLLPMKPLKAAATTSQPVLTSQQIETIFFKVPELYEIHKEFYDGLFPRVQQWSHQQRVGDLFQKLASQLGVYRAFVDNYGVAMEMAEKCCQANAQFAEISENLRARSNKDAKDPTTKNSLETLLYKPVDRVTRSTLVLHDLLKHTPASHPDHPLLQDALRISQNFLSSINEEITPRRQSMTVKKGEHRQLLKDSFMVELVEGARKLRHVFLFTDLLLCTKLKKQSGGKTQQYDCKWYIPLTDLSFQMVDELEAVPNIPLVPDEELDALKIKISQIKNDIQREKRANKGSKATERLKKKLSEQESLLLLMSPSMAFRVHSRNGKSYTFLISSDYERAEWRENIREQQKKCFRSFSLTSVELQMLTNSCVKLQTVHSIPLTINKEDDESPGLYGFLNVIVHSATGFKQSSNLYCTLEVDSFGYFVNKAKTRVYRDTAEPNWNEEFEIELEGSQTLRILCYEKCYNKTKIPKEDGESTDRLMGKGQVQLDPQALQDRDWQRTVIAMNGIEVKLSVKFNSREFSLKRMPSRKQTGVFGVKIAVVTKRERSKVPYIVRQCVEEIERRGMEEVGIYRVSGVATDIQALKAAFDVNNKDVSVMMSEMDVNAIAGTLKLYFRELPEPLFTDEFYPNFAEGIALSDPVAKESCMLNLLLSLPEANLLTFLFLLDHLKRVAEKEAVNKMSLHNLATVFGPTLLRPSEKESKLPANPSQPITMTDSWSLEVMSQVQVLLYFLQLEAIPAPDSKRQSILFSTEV
UniProt O75531: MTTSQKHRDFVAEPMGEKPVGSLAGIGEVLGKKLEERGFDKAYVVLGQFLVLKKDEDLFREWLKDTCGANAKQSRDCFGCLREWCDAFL

Compound: Cc1cc(ccc1-c1ccccc1)C(=O)N1CCCN(CC1)C(=O)CCl [compound 10]
Assay: probe-labelled cysteine peptide fold change vs DMSO (competition) (log2 fold change); higher = less target engagement (more negative = stronger competition)
Conditions: THP-1, incubation time: 4 h
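Note: competitive profiling in live THP-1 cells: cysteine peptides tagged with an iodoacetamide desthiobiotin (IA-DTB) probe, intensity after compound treatment relative to DMSO-treated cells.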

Target | probe-labelled cysteine peptide fold change (10 µM) | probe-labelled cysteine peptide fold change (50 µM)
BOP1_Q14137_404_DLQPFPTCQALVYR (UniProt Q14137) | -0.119 | -0.479
AZU1_P20160_207+222_RGGICNGDGGTPLVCEGLAHGVASFSLGPCGR (UniProt P20160) | 0.523 | 0.564
BAG2_O95816_162_FQSIVIGCALEDQKK (UniProt O95816) | 0.0439 | -0.18
BOD1L1_Q8NFC6_876_CDMDSTNMDSNLKPEEVVHK (UniProt Q8NFC6) | 0.0401 | -0.148
BLVRA_P53004_281_ILHCLGLAEEIQK (UniProt P53004) | 0.0166 | -0.0931
BOD1L1_Q8NFC6_2599_CEQDLTIK (UniProt Q8NFC6) | -0.37 | -0.337
BPTF_Q12830_1471_CELVSGESTGNCEDRLPVK (UniProt Q12830) | -0.216 | -0.229
AXL_P30530_852_DSCSCLTAAEVHPAGR (UniProt P30530) | -0.0679 | -0.0354
B2M_P61769_100_DEYACR (UniProt P61769) | -0.108 | 0.439
BCOR_Q6W2J9_1044_DSEMCK (UniProt Q6W2J9) | -0.557 | -0.526
BOD1L1_Q8NFC6_2384_HKVPMPSLIAENNCR (UniProt Q8NFC6) | -0.187 | -0.276
BCKDK_O14874_111+118_CLPFIIGCNPTILHVHELYIR (UniProt O14874) | 0.237 | 0.162
BPTF_Q12830_1969_IICPIGVPETPK (UniProt Q12830) | 0.148 | 0.0317
BOD1L1_Q8NFC6_1071_RLCENR (UniProt Q8NFC6) | -0.0312 | -0.173
BCAT1_P54687_221_GGTGDCK (UniProt P54687) | -0.0709 | -0.199
BPNT1_O95861_42_TCATDLQTK (UniProt O95861) | -0.365 | -0.33
BOP1_Q14137_108_TTEEQVQASTPCPR (UniProt Q14137) | -0.185 | -0.638
BIRC6_Q9NR09_2910_AVCGEMTR (UniProt Q9NR09) | 0.172 | -0.0873
BAG6_P46379_856_TNLEFLQEQFNSIAAHVLHCTDSGFGAR (UniProt P46379) | 0.0826 | 0.0332
BIRC6_Q9NR09_739_FAEEENLCIDSITPCADGIHLLVGLR (UniProt Q9NR09) | -0.04 | -0.122

Target | probe-labelled cysteine peptide fold change (10 µM) | probe-labelled cysteine peptide fold change (50 µM)
B4GAT1_O43505_159_VAMHLVCPSR (UniProt O43505+B4GAT1) | 0.00493 | 0.0343
BAZ1A_Q9NRL2_404_EDMECDDLK (UniProt Q9NRL2) | -0.334 | -0.269
BIRC6_Q9NR09_1357_TDDGQITEHAQSLVLDTLCWLAGVHSNGPGSSK (UniProt Q9NR09) | 0.242 | 0.176
BAZ1A_Q9NRL2_970_SSNAYDPSQMCAEK (UniProt Q9NRL2) | -0.0997 | -0.345
BAG3_O95817_151_QCGQVAAAAAAQPPASHGPER (UniProt O95817) | 0.136 | 0.416
BCAT1_P54687_140_EELLECIQQLVK (UniProt P54687) | 0.26 | 0.65
AVEN_Q9NQS1_169_EWDSEASCPK (UniProt Q9NQS1) | -0.857 | -2.39
BIRC6_Q9NR09_613_TQGESISEQGSTDNESCTNSELNSPLVR (UniProt Q9NR09) | -0.291 | -0.0326
BOP1_Q14137_620_KLMPNCK (UniProt Q14137) | -0.0395 | -0.278
BCKDK_O14874_118_CLPFIIGCNPTILHVHELYIR (UniProt O14874) | 0.0121 | 0.126
BCR_P11274_395_HCPVVVSEATIVGVR (UniProt P11274) | -0.078 | 0.187
BAZ2B_Q9UIF8_1960_GCHTYCHRPK (UniProt Q9UIF8) | 0.0435 | -0.0125
BAHCC1_Q9P281_683_GPGQSERPDCAR (UniProt Q9P281) | -0.0255 | 0.00773
ATXN7L3_Q14CW9_226_CPQHTDEQR (UniProt Q14CW9) | -0.319 | 0.172
BCAT1_P54687_338_EMFGSGTACVVCPVSDILYK (UniProt P54687) | 0.114 | 0.135
BRAP_Q7Z569_164_SAMLCILTVPAAMTSHDLMK (UniProt Q7Z569) | 0.132 | 0.0808
BOP1_Q14137_373_CLDLYLCPR (UniProt Q14137) | -0.132 | -0.316
BANF1_O75531_67_DTCGANAK (UniProt O75531) | 0.317 | -0.0655
BOD1L1_Q8NFC6_1947_DTDICSSAK (UniProt Q8NFC6) | -0.306 | -0.123

Some of the entries so far, with tabs:
Target	probe-labelled cysteine peptide fold change (10 µM)	probe-labelled cysteine peptide fold change (50 µM)
BPTF_Q12830_1969_IICPIGVPETPK (UniProt Q12830)	0.148	0.0317
BCR_P11274_395_HCPVVVSEATIVGVR (UniProt P11274)	-0.078	0.187
BANF1_O75531_67_DTCGANAK (UniProt O75531)	0.317	-0.0655
